Reference: paper PMC11912016

Protein sequences, listed by entry. Tags and fused reporters are not part of them.
UniProt P43006: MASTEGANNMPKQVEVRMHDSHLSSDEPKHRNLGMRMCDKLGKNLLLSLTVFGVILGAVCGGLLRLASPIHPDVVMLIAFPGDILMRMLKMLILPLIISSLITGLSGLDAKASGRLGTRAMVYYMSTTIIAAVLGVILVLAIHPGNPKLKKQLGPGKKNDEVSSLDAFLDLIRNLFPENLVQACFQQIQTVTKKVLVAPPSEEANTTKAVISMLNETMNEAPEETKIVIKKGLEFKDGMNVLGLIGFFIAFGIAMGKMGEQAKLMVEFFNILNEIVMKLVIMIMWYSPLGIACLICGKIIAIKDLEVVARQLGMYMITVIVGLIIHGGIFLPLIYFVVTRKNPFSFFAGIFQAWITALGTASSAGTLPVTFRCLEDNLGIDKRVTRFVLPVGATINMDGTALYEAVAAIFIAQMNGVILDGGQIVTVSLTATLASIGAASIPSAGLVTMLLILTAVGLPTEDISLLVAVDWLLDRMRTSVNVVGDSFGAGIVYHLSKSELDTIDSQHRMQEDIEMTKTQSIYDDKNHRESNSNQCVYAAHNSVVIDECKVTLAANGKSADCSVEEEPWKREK

Target: T1, Crystallin alpha B (CRYAB) (mouse (endogenous in NAcc)) (UniProt P23927)
T1 sequence: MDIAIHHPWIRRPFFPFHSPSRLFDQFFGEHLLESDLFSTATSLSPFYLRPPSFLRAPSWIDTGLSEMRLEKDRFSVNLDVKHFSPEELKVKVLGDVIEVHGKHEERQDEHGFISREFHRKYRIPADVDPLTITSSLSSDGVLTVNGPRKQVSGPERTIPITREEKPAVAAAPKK
Assay: affinity purification with mass spectrometry; co-IP with CRYAB antibody from NAcc of control or cocaine (10 mg/kg) treated mice, protein A/G magnetic beads, eluate analysed by LC-MS/MS

- binding: binds
Substance: excitatory amino acid transporter 2 (EAAT2) (from UniProt P43006 1-572)

Results are given in words; binding and its absence hold for the method and conditions named. In cells and extracts the contact can be indirect. Here binding means that the protein was enriched with, or labelled near, the bait; the list need not be complete.
